No constants are given. Whether binding was seen depends on the method and setting. Some binding calls cover weakened binding; strength is not graded here.
Target: mPD-L1 (mouse) (UniProt Q9EP73)
Assay: competitive ELISA: mPD-L1 pre-incubated with AFFIMER, added to coated PD-1, bound PD-L1 detected

Protein sequences, listed by entry. Tags and fused reporters are not part of them.
UniProt Q9EP73: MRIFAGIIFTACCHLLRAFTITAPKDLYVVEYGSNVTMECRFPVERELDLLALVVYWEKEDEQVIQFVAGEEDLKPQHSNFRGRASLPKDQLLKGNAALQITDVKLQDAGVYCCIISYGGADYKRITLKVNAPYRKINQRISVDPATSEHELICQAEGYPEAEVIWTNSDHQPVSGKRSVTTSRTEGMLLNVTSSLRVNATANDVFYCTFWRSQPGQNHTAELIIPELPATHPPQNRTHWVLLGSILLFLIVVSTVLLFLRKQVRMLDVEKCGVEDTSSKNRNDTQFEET

binding: binds
B1: AVA04-182 XT20 (designed binder)
chain: MIPRGLSEAKPATPEIQEIVDKVKPQLEEKTNETYGKLEAVQYKTQVLAFALPEFEYMSTNYYIKVRAGDNKYMHLKVFNGPPMIRRKNEVADRVLTGYQVDKNKDDELTGFAEAAAKEAAAKEAAAKEAAAKEAAAKEAAAKMIPRGLSEAKPATPEIQEIVDKVKPQLEEKTNETYGKLEAVQYKTQVLAFALPEFEYMSTNYYIKVRAGDNKYMHLKVFNGPPMIRRKNEVADRVLTGYQVDKNKDDELTGFAEAAAKEAAAKEAAAKEAAAKEAAAKEAAAKMIPRGLSEAKPATPEIQEIVDKVKPQLEEKTNETYGKLEAVQYKTQVLANFFQRRWPGSTNYYIKVRAGDNKYMHLKVFNGPWKFRNTDRGADRVLTGYQVDKNKDDELTGFHHHHHH

Reference: US20230272081A1 (AVACTA LIFE SCIENCES, published 2023)
